This note sets out measurements from ChEMBL document CHEMBL5674883, “The Heterochromatin Landscape in Migrating Cells and the Importance of H3K27me3 for Associated Transcriptome Alterations” (Cells, 2018).

Chains of the proteins cited; added tags and fusions are not shown.
UniProt Q61188, whole entry: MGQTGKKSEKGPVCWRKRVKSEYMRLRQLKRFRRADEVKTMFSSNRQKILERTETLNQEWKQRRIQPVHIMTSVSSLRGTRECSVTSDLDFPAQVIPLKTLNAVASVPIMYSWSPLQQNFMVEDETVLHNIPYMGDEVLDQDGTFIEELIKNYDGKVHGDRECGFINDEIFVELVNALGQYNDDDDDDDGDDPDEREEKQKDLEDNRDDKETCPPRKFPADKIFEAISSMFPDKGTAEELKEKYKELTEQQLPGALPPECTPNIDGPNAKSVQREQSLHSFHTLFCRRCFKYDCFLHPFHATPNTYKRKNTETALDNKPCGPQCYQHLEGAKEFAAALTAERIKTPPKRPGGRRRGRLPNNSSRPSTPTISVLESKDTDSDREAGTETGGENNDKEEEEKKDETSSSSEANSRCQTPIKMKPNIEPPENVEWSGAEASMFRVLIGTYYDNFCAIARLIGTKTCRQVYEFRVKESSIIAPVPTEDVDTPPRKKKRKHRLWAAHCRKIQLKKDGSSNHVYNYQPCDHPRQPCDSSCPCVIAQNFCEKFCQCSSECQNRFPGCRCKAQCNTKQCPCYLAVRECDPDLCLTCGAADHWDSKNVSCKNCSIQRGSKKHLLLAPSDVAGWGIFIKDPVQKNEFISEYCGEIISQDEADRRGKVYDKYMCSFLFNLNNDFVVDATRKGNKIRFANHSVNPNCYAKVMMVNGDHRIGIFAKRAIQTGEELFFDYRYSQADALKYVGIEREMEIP

Holding throughout (type): cell-based
The target of test [1] is T1, RNA polymerase II (Mus musculus) (UniProt P08775+Q8CFI7+P97760+A0A3Q4L2S8+Q80UW8+P61219+P62488+Q923G2+P60898+O08740+Q63871+P62876). Briefly: Inhibition of RNA polymerase II in mouse B16-F1 migrating cells assessed as fold change in Las1l-RNA stability at 0.1 mM measured by ChIP-seq analysis relative to control cells.
Test [2] deals with T1, RNA polymerase II (Mus musculus). Briefly: Inhibition of RNA polymerase II in mouse B16-F1 migrating cells assessed as fold change in Dusp7-RNA stability at 0.1 mM measured by ChIP-seq analysis relative to control cells.
Test [3] has the same target. Briefly: Inhibition of RNA polymerase II in mouse B16-F1 migrating cells assessed as fold change in Fam208a-RNA stability at 0.1 mM measured by ChIP-seq analysis relative to control cells.
The target is the same in test [4]. Put plainly: Inhibition of RNA polymerase II in mouse B16-F1 migrating cells assessed as fold change in Tbc1d7-RNA stability at 0.1 mM measured by ChIP-seq analysis relative to control cells.
Test [5] has the same target. Briefly: Inhibition of RNA polymerase II in mouse B16-F1 migrating cells assessed as fold change in Tgfbr1-RNA stability at 0.1 mM measured by ChIP-seq analysis relative to control cells.
The target is the same in test [6]. Put plainly: Inhibition of RNA polymerase II in mouse B16-F1 migrating cells assessed as fold change in Lypla1-RNA stability at 0.1 mM measured by ChIP-seq analysis relative to control cells.
For test [7] the target is unchanged. Briefly: Inhibition of RNA polymerase II in mouse B16-F1 migrating cells assessed as fold change in Sept2-RNA stability at 0.1 mM measured by ChIP-seq analysis relative to control cells.
Test [8] has the same target. Put plainly: Inhibition of RNA polymerase II in mouse B16-F1 migrating cells assessed as fold change in Dkc1-RNA stability at 0.1 mM measured by ChIP-seq analysis relative to control cells.
For test [9] the target is unchanged. Put plainly: Inhibition of RNA polymerase II in mouse B16-F1 migrating cells assessed as fold change in Rasd2-RNA stability at 0.1 mM measured by ChIP-seq analysis relative to control cells.
Test [10] shares this target. Briefly: Inhibition of RNA polymerase II in mouse B16-F1 migrating cells assessed as fold change in Usp38-RNA stability at 0.1 mM measured by ChIP-seq analysis relative to control cells.
The target is the same in test [11]. Put plainly: Inhibition of RNA polymerase II in mouse B16-F1 migrating cells assessed as fold change in Akap11-RNA stability at 0.1 mM measured by ChIP-seq analysis relative to control cells.
Test [12] has the same target. Put plainly: Inhibition of RNA polymerase II in mouse B16-F1 migrating cells assessed as fold change in Dld-RNA stability at 0.1 mM measured by ChIP-seq analysis relative to control cells.
The target is the same in test [13]. Briefly: Inhibition of RNA polymerase II in mouse B16-F1 migrating cells assessed as fold change in Larp7-RNA stability at 0.1 mM measured by ChIP-seq analysis relative to control cells.
The target is the same in test [14]. Briefly: Inhibition of RNA polymerase II in mouse B16-F1 migrating cells assessed as fold change in Morc2a-RNA stability at 0.1 mM measured by ChIP-seq analysis relative to control cells.
The target is the same in test [15]. Briefly: Inhibition of RNA polymerase II in mouse B16-F1 migrating cells assessed as fold change in Ndfip2-RNA stability at 0.1 mM measured by ChIP-seq analysis relative to control cells.
Test [16] shares this target. Briefly: Inhibition of RNA polymerase II in mouse B16-F1 migrating cells assessed as fold change in Hk1-RNA stability at 0.1 mM measured by ChIP-seq analysis relative to control cells.
For test [17], the target named is Histone-lysine N-methyltransferase EZH2 (Mus musculus) (UniProt Q61188). Put plainly: Inhibition of EZH2 in mouse B16-F1 migrating cells assessed as fold change in H3K27me3-buffered regulated Cbx7-mRNA expression at 3 uM measured by ChIP-seq analysis relative to control cells.
The target is the same in test [18]. Briefly: Inhibition of EZH2 in mouse B16-F1 migrating cells assessed as fold change in H3K27me3-buffered regulated Rev1-mRNA expression at 3 uM measured by ChIP-seq analysis relative to control cells.
Test [19] has the same target. Briefly: Inhibition of EZH2 in mouse B16-F1 migrating cells assessed as fold change in H3K27me3-buffered regulated Sdc4-mRNA expression at 3 uM measured by ChIP-seq analysis relative to control cells.
The target is the same in test [20]. Briefly: Inhibition of EZH2 in mouse B16-F1 migrating cells assessed as fold change in H3K27me3-independent regulated Cited1-mRNA expression at 3 uM measured by ChIP-seq analysis relative to control cells.
Test [21] shares this target. Put plainly: Inhibition of EZH2 in mouse B16-F1 migrating cells assessed as fold change in H3K27me3-buffered regulated Adam19-mRNA expression at 3 uM measured by ChIP-seq analysis relative to control cells.
The target is the same in test [22]. Briefly: Inhibition of EZH2 in mouse B16-F1 migrating cells assessed as fold change in H3K27me3-dependent regulated Serpinb9b-mRNA expression at 3 uM measured by ChIP-seq analysis relative to control cells.
The target is the same in test [23]. Put plainly: Inhibition of EZH2 in mouse B16-F1 migrating cells assessed as fold change in H3K27me3-buffered regulated Tceanc-mRNA expression at 3 uM measured by ChIP-seq analysis relative to control cells.
Test [24] shares this target. Put plainly: Inhibition of EZH2 in mouse B16-F1 migrating cells assessed as fold change in H3K27me3-independent regulated Arid5a-mRNA expression at 3 uM measured by ChIP-seq analysis relative to control cells.
The target is the same in test [25]. Briefly: Inhibition of EZH2 in mouse B16-F1 migrating cells assessed as fold change in H3K27me3-buffered regulated Kansl1l-mRNA expression at 3 uM measured by ChIP-seq analysis relative to control cells.
For test [26] the target is unchanged. Briefly: Inhibition of EZH2 in mouse B16-F1 migrating cells assessed as fold change in H3K27me3-buffered regulated Arid4b-mRNA expression at 3 uM measured by ChIP-seq analysis relative to control cells.
The target is the same in test [27]. Put plainly: Inhibition of EZH2 in mouse B16-F1 migrating cells assessed as fold change in H3K27me3-buffered regulated Agpat4-mRNA expression at 3 uM measured by ChIP-seq analysis relative to control cells.
The target is the same in test [28]. Briefly: Inhibition of EZH2 in mouse B16-F1 migrating cells assessed as fold change in H3K27me3-buffered regulated Gfod1-mRNA expression at 3 uM measured by ChIP-seq analysis relative to control cells.
Test [29] has the same target. Put plainly: Inhibition of EZH2 in mouse B16-F1 migrating cells assessed as fold change in H3K27me3-buffered regulated Ints6l-mRNA expression at 3 uM measured by ChIP-seq analysis relative to control cells.
Test [30] has the same target. Briefly: Inhibition of EZH2 in mouse B16-F1 migrating cells assessed as fold change in H3K27me3-buffered regulated Acpp-mRNA expression at 3 uM measured by ChIP-seq analysis relative to control cells.

This continues a long series; more values of the same kind are listed elsewhere.

As to `OC[C@H]1O[C@@H](n2cnc3cc(Cl)c(Cl)cc32)[C@H](O)[C@@H]1O`, the log2FC was -0.49 in test [1]; -0.91 in [2]; -0.64 in test [3]; 0.54 in [4]; -0.54 in test [5]; -0.57 in [6]. Also, the log2FC is -0.67 in [7]; -0.71 in test [8]; 1.14 in test [9]; -0.69 in test [10]; -0.55 in test [11]; -0.62 in test [12]. For the same compound, the log2FC was -0.46 in [13], -0.42 in [14], -0.39 in [15] and 0.6 in test [16].
`CCCc1cc(C)[nH]c(=O)c1CNC(=O)c1cc(-c2ccnc(N3CCN(C)CC3)c2)cc2c1cnn2C(C)C`: the log2FC in [17] is -0.56; in [18] it was -0.41; in [19], -0.55; in test [20], 0.55; in [21] it was -0.52; in test [22], 0.48. The log2FC in test [23] is -0.95; in [24] it was 0.42; in test [25], -0.4; in [26] it was -0.4; in [27], 0.39; in test [28], -0.52. Further, the log2FC is -0.51 in test [29] and -0.39 in test [30].
